In PMC3457981, “The Role, Interaction and Regulation of the Velvet Regulator VelB in Aspergillus nidulans” one finds binding data, which are given here for two molecules.

These are yes or no findings as the source states them, for the method shown. Binding seen in cells or lysates may run through a third protein. These calls come from enrichment with a bait or labelling near it, and not all partners need be listed. For part of these data: A no says only that the protein was not detected with the bait. For part of these data: Sequences can lack the tags named with a protein.

Assay [1] concerns the target VelB::3xFLAG (A. nidulans) (UniProt C8VTS4). In words: affinity purification with mass spectrometry; lysate of hyphae (mycelium, 18 h in liquid MM at 37°C) of THS20.1 and WT on anti-FLAG M2 affinity gel, washed three times, SDS-PAGE, Coomassie bands cut out, nano-LC-ESI-MS/MS.
Assay [2] has the same target. In words: affinity purification with mass spectrometry; lysates of conidia (2 day colonies) and ascospores (7 day colonies) of THS20.1 and WT on anti-FLAG M2 affinity gel, washed three times, SDS-PAGE, Coomassie bands cut out, nano-LC-ESI-MS/MS.
For assay [3], the target named is T1, VelB::3xFLAG (A. nidulans), C8VTS4.
T1 chain: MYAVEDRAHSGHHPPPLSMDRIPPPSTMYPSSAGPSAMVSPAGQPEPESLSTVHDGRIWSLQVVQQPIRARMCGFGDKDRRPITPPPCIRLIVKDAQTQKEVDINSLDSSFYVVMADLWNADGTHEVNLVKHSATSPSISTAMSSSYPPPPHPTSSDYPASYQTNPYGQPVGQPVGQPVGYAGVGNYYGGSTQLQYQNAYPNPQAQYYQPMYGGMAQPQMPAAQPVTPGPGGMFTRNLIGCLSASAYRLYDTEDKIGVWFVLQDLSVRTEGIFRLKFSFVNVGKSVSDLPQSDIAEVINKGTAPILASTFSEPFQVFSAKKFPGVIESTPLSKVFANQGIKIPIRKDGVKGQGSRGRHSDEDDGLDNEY
Described as above. To be noted: remark: other sources report otherwise.

B1: VeA (protein, UniProt C8VTV4 1-573)
chain: MATLAAPPPPLGESGNSNSVSRITREGKKITYKLNIMQQPKRARACGQGSKSHTDRRPVDPPPVIELNIFESDPHDDSNKTDITFVYNANFFLFATLEPERPIATGKLMTNQGSPVLTGVPVAGVAYLDKPNRAGYFIFPDLSVRNEGSYRFSFHLFEQIKDPKDATEGTQPMPSPVPGKLSSPQEFLEFRLEVISNPFIVYSAKKFPGLTTSTPISRMIAEQGCRVRIRRDVRMRRRGDKRTEDYDYDNERGYNNRRPDQYAGSDAYANAPERPRSTSISTNMDPYSYPSRRPSAVEYGQPIAQPYQRPMASTPAPSSTPIPAPIPMPGPVALPPSTPSPASAHAPAPPSVPLAAPPPLHTPSYQSHLSFGATQTQYPAPQLSHIPQQTTTPTHPYSPRSSISHSRNQSISEYEPSMGYPGSQTRLSAERPSYGQPSQTTSLPPLRHSLEPSVNSRSKTPSNMITSLPPIQSLSELPSTTSQPSSAIGSSPANEPGPRLWETNSMLSKRTYEESFGHDDRPLYNGMRPDSESYPGGMQRRPSYERSSLLDGPDQMAYKRANGRMVSKPATMR
Take B1: the binding result is “binds” in assay [1]; “no binding (only in conidia and ascospores)” in assay [2].

B2: LaeA, C8VQG9 1-374 (protein)
chain: MFEMGPVGTRLPAMTSPAHNHYSYHSPTSSDRGRSRQNSDAMDIQSITEREPATRYAVAGGPAPWNRNGSPSMSPMYSNNSERNQFHEENGRTYHGFRRGMYFLPCDEQEQDRLDIFHKLFTVARVSESLIYAPHPTNGRFLDLGCGTGIWAIEVANKYPDAFVAGVDLAPIQPPNHPKNCEFYAPFDFEAPWAMGEDSWDLIHLQMGCGSVMGWPNLYRRIFAHLRPGAWFEQVEIDFEPRCDDRSLDGTALRHWYDCLKQATAETMRPIAHSSRDTIKDLQDAGFTEIDHQIVGLPLNPWHQDEHERKVARWYNLAVSESIENLSLAPFSRVYRWPLERIQQLAADVKSEAFNKEIHAYNILHIYQARKPLR
With B2, the binding result in assay [3] is “no binding”.
